Laboratory results from patent US20040115810A1, “Stem cell differentiation-inducing promoter” (priority 2000, published 2004).
Some results were stated once for a whole list of compounds, not compound by compound.

system: neurospheres, that is, nerve stem cell clusters; experiment: Test 1: differentiation of neurospheres (nerve stem cell clusters), immunofluorescence under confocal microscope; assay type: cell-based, mouse; details: compound 10^-6M, typically 24 hours; result in words

Q: Which “action for promoting differentiation of neurospheres into neurocytes” value (“action for promoting differentiation” below) does the source give for `CC1CCC(=O)C=C1CCCCCCCCCCCCCCO` (stereo not shown) [Compound 1, 3-(14-hydroxytetradecyl)-4-methyl-2-cyclohexen-1-one] here?
A: found to have an action for promoting differentiation of neurospheres, that is, nerve stem cell clusters, into neurocytes

Q: With `CC1CCC(=O)C=C1CCCCCCCCCCCCCCCO` (stereo not shown) [Compound 2, 3-(15-hydroxypentadecyl)-4-methyl-2-cyclohexen-1-one] as the compound, how does the “action for promoting differentiation” value read?
A: found to have an action for promoting differentiation of neurospheres, that is, nerve stem cell clusters, into neurocytes

Q: How did the “action for promoting differentiation” value turn out when `CC1=C(CCCCCCCCCCCCO)C(C)(C)CCC1=O` [Compound 3, 3-(12-hydroxydodecyl)-2,4,4-trimethyl-2-cyclohexen-1-one] was run?
A: found to have an action for promoting differentiation of neurospheres, that is, nerve stem cell clusters, into neurocytes

Q: `CC1=C(CCCCCCCCCCCCCCCO)C(C)(C)CCC1=O` [Compound 4, 3-(15-Hydroxypentadecyl)-2,4,4-trimethyl-2-cyclohexen-1-one] was tested. Which “action for promoting differentiation” value did it give?
A: found to have an action for promoting differentiation of neurospheres, that is, nerve stem cell clusters, into neurocytes
